Results from patent US20230045791A1.
No constants are given. Whether binding was seen depends on the method and setting. Some results given as binding are weak or reduced against the parent protein; the word gives no strength.

The chains behind the UniProt entries cited, without tags or fusion partners. Where a name states a change or a piece, a line headed by the entry shows the natural chain unless it says otherwise. A line that says so, or that is headed by a name, gives the form on record, which may keep a tag or linker. Residues count along the entry.
UniProt P20333: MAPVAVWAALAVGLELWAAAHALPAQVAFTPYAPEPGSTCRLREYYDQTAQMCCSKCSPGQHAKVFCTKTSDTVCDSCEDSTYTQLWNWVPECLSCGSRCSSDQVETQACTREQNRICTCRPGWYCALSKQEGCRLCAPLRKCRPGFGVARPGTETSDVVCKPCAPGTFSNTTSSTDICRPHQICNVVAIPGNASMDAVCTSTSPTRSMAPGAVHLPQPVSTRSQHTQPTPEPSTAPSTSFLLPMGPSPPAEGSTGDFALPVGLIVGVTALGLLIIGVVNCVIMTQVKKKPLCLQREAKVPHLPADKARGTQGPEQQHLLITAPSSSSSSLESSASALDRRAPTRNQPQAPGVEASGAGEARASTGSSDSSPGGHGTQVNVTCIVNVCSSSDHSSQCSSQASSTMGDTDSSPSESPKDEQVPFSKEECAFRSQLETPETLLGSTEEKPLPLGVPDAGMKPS
human TNFR2 on T cells and NK cells of the humanized TNFR2 knock-in (KI) mouse: residues 23-461 of P20333
His-tagged recombinant human TNFR2: residues 23-257 of P20333
rhesus monkey TNFR2 expressed on CHO cells (CHO.mkHFB3) (F7GUU0, form named): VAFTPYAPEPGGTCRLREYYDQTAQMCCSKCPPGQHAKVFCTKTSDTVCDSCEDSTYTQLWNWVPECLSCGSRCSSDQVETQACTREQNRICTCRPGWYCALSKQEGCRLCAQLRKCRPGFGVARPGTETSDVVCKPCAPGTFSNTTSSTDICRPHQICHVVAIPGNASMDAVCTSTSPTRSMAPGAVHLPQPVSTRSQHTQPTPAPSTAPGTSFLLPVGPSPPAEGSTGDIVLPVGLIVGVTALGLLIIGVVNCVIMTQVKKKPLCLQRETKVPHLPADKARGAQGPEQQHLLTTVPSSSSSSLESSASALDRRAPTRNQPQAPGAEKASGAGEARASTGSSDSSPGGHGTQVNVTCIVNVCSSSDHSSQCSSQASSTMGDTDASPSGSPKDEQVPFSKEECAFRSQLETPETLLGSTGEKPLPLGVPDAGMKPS

Columns and labels:
[1] = biological target: human TNFR2 on T cells and NK cells of the humanized TNFR2 knock-in (KI) mouse (human) (UniProt P20333); assay: ex vivo binding to CD8 T cells of the TNFR2 KI mouse; data not shown
[2] = biological target: rhesus monkey TNFR2 expressed on CHO cells (CHO.mkHFB3) (rhesus monkey) (UniProt F7GUU0); assay: flow cytometry on CHO cells expressing rhesus monkey TNFR2 (CHO.mkHFB3), anti-human Fc-AF647 detection
[3] = biological target: human TNFR2 on T cells and NK cells of the humanized TNFR2 knock-in (KI) mouse (human) (UniProt P20333); assay: ex vivo binding to CD3 T cells of humanized TNFR2 KI mice, single dose of 200 nM antibody; data not shown
[4] = biological target: His-tagged recombinant human TNFR2 (human) (UniProt P20333); assay: ELISA (FIG. 14A)
[5] = biological target: recombinant cynomolgus TNFR2 (cynoTNFR2-His) (cynomolgus); assay: ELISA (FIG. 14A)
[6] = biological target: His-tagged recombinant human TNFR2 (human) (UniProt P20333); assay: ELISA on recombinant hTNFR2-His (FIG. 14A)
[7] = biological target: human TNFR2 expressed on cells (CHO.hHFB3 / CHO.hTNFR2 cells; primary human T cells) (human) (UniProt P20333); assay: flow cytometry on CHO.hHFB3 cells (FIG. 12B)
[8] = biological target: human TNFR2 expressed on cells (CHO.hHFB3 / CHO.hTNFR2 cells; primary human T cells) (human) (UniProt P20333); assay: flow cytometry on CHO.hTNFR2 cells (FIG. 12A)
[9] = biological target: recombinant cynomolgus TNFR2 (cynoTNFR2-His) (cynomolgus); assay: ELISA on recombinant cynoTNFR2-His (FIG. 14A)
[10] = biological target: human TNFR2 expressed on cells (CHO.hHFB3 / CHO.hTNFR2 cells; primary human T cells) (human) (UniProt P20333); assay: flow cytometry on CHO cells expressing human TNFR2 (FIG. 12A)
[11] = biological target: human TNFR2 on T cells and NK cells of the humanized TNFR2 knock-in (KI) mouse (human) (UniProt P20333); assay: in vivo TNFR2 receptor occupancy by FACS on tumor-infiltrating leukocytes (FIG. 25A)
[12] = biological target: human TNFR2 on T cells and NK cells of the humanized TNFR2 knock-in (KI) mouse (human) (UniProt P20333); assay: in vivo TNFR2 receptor occupancy by FACS on selected peripheral blood cells (FIG. 25B)
[13] = biological target: human TNFR2 on T cells and NK cells of the humanized TNFR2 knock-in (KI) mouse (human) (UniProt P20333); assay: in vivo TNFR2 receptor occupancy by FACS on tumor and blood leukocytes of MC38-bearing humanized TNFR2 KI mice

Measured: binding

B1: HFB3-18-hG1 (mouse monoclonal antibody) (antibody, human IgG1, kappa, V domains shown)
VH: EVKLEESGGGLVQPGGSMKLSCAASGFTFSDAWMDWVRQSPEKGLEWVAEVRNKANNHATYYAESVKGRFTISRDDSKSSVYLQMNSLRAEDTGIYYCTRSVGGYGTTYWYFDVWGTGTTVTVSS
VL: DIVMTQSPSSLSVSAGEKVTMSCKSSQNLLNSGNQKNYLAWYQQKPGQPPKLLIFGASTRESGVPDRFTGSGSGTDFTLTISSVQAEDLAVYYCQSEHSYPYTFGGGTKLEIKR
binds: [1] | [2] | [3]

B2: HFB3-14hz1c-hG1 (humanized monoclonal antibody) (antibody, V domains shown)
VH: QVQLVQSGAEVKKPGSSVKVSCKASGYTFTDYYMNWVRQAPGQGLEWMGDINPNDGGTTYAQKFQGRVTITADESTSTAYMELSSLRSEDTAVYFCAREGNYYAYDVRVWYFDVWGQGTTVTVSS
VL: DIQMTQSPSSLSASVGDRVTITCGASQDIITYLNWYQQKPGKAVKLLIYSTSSLNSGVPSRFSGSGSGTDFTLTISSLQPEDFATYYCQQYSELPYTFGGGTKVELKR
not listed: [2] | [11] | [12] | [13]
binds: all other assays above

B3: HFB3-1-hG1 (mouse monoclonal antibody) (antibody, human IgG1, kappa, V domains shown)
VH: EFQLQQSGPELVKPGASVKISCKASSYSFTDYNMNWVKQSNGKSLEWIGIIFPKYGTTSYNQKFKGKATLTVDQSSSTAYMQLNSLTSEDSAVYYCATDGGTWYFDVWGTGTTVTVSS
VL: QIVLTQSPALMSASPGEKVTMTCSASSSVTYMYWYQQKPRSSPKPWIYLTSNLASGVPARFSGSGSGTSYSLTISSMEAEDAATYYCQQWSSNPPTFGSGTKLEIKR
binds: [1] | [11] | [12] | [2] | [3] | [13]

B4: HFB3-18hz1-hG1 (humanized monoclonal antibody) (antibody, V domains shown)
VH: EVQLVESGGGLVQPGGSLKLSCAASGFTFSDAWMDWVRQASGKGLEWVGEVRNKANNHATYYAASVKGRFTISRDDSKNTAYLQMNSLKTEDTAVYYCTRSVGGYGTTYWYFDVWGQGTTVTVSS
VL: DIVMTQSPDSLAVSLGERATINCKSSQNLLNSGNQKNYLAWYQQKPGQPPKLLIFGASTRESGVPDRFSGSGSGTDFTLTISSLQAEDVAVYYCQSEHSYPYTFGQGTKLEIKR
binds: [5] | [9] | [1] | [3]

B5: HFB3-1hz6-hG1 (humanized monoclonal antibody) (antibody, V domains shown)
VH: QVQLVQSGAELKKPGASVKVSCKASSYSFTDYNMNWVRQAPGQSLEWMGIIFPKYGTTSYAQKLQGRVTLTTDTSTSTAYMELRSLRSDDTAVYYCATDGGTWYFDVWGTGTTVTVSS
VL: DIQLTQSPSFLSASVGDRVTITCRASSSVTYMYWYQQKPGKAPKPWIYLTSNLASGVPSRFSGSGSGTEYTLTISSLQPEDAATYYCQQWSSNPPTFGSGTKLEIKR
binds: [5] | [9] | [1] | [3]
